Experimental data reported in patent US11840707B2, “Co-culture system and method for in vitro assessment of reverse cholesterol transport” (INSTITUT DE CARDIOLOGIE DE MONTREAL, priority 2016, dated 2023).
“Also recorded” adds a separate entry of the source.

How the values were obtained:
J774 macrophages = experiment: Co-culture assay: Specific Chol Efflux from 3H-cholesterol-labeled J774 macrophages; format: cell-based, murine
Excerpt: (§1) Total Chol Efflux is the sum of co-culture medium counts plus hepatic counts, while Total Chol Uptake is defined as hepatic counts only. Both Chol Efflux and Chol Uptake are expressed as % of total counts in the system. Background values, corresponding to basal co-culture medium (without acceptors), can be subtracted from the corresponding values in presence of acceptors to obtain Specific Chol Efflux (%) and Specific Chol Uptake (%) values.
(§2) Simultaneous Measurement of Cholesterol Flux Between Cholesterol-Loaded, ^3H-Cholesterol-Labeled J774 Cells and Target HepG2 Hepatocytes in a Transwell-Clear™ Insert.
(§3) J774 cells were seeded at a density of 8,000 cells per cm^2 in 1 mL of Dulbecco's minimal essential medium (DMEM, high glucose) and supplemented with 10% fetal bovine serum (FBS) and 1% penicillin/streptomycin in standard 12-well (3.8 cm^2) flat bottom plates (Corning).
(§4) Loaded plates were pre-incubated in an incubator at 37° C. with 5% CO2 for 30-45 min without cells in order to improve later cell attachment and maximize cell spreading on the insert membrane during cell culture. After pre-incubation, the media was removed. The wells of the Transwell plates were then filled with 1.5 mL of EMEM (low glucose) supplemented with 10% FBS and 1% penicillin/streptomycin and HepG2 cells were seeded at a density of 60,000 cells per cm^2 in 0.5 mL EMEM (low glucose) supplemented with 10% FBS and 1% penicillin/streptomycin on each insert.
(§5) Following seeding in plates or inserts, both cell types were placed in a cell incubator at 37° C. filled with humidified air and 5% CO2 and incubated for 72 h.
(§6) Following the 72-hour incubation and achieving a J774 cell confluence of 70-80%, the J774 cells were washed with 1 mL per well of PBS at 20° C. After the wash, 1 mL of Labeling Medium was added to each well. The Labeling Medium contained: 1% FBS, 1% penicillin/streptomycin, 2 μCi/mL of ^3H-cholesterol (Perkin-Elmer, NET139005MC), 50 μg protein/mL of acetylated LDL (acLDL) and DMEM (high glucose). The cells were then incubated for 24 hr at 37° C. in a cell incubator filled with humidified air and 5% CO2. One plate served as a reference to determine the labeled-cholesterol level in cells prior to co-culture assay.
(§7) Following the 72-hour incubation, the culture medium was removed from HepG2 cells grown on the insert membrane and replaced with 2 mL of fresh EMEM (low glucose) supplemented with 10% FBS and 1% penicillin/streptomycin. The cells were then incubated for an additional 24 hours at 37° C. in an incubator filled with humidified air and 5% CO2.
Following the 24-hour incubation of J774 cells, the labeling medium was removed from the plates and discarded. […]

HepG2 hepatocytes = experiment: Co-culture assay: Specific Chol Uptake into HepG2 hepatocytes on insert membrane; format: cell-based, human; details: for combined effect on Specific Chol Uptake: HepG2 25 μM atorvastatin plus J774 300 μM cAMP
Excerpt: as §1, §2, §3
as §4, with “Transwell-Clear™ 12-well plates (Corning, cat. #3642), each consisting of 12 cylindrical cell culture inserts (1.12 cm^2 insert/well) were bathed with 2 mL Eagle's minimal essential medium (EMEM, low glucose) distributed as follows: 0.5 mL in the insert and 1.5 mL in the well. Loaded” for “Loaded”
as §5, §6, §7
Following the 24-hour incubation of J774 cells, the labeling medium was removed from the plates and discarded. The cells were then washed with 1 mL of phosphate-buffered saline (PBS) at 20° C. and replaced with Equilibration Medium containing: DMEM (high glucose), 0.2% Bovine Serum Albumin (BSA) (low endotoxin, fatty acid-free, Sigma, cat. #A8806) and the appropriate Treatment under study. The J774 culture was then incubated for 24 hours.
J774 cells ongoing the ^3H-cholesterol equilibration phase and/or HepG2 cells before co-culture can be treated by various means. Pharmacological agent is diluted in the appropriate culture medium with 0.2% BSA and vehicle (solvent) is tested in parallel. Modulation of gene expression is also accomplished at this step, by transfection of siRNA according to the manufacturer's protocol, and a control non-silencing RNA is tested in parallel.
After 24 hour of incubation, equilibration medium from J774 culture and culture medium from HepG2 cells were discarded. Cells were washed with 1 mL (J774) or 2 mL (HepG2) of PBS at 20° C. and the wash medium discarded. […]

[1] = HepG2 pre-treated 25 μM, acceptor human LDL
[2] = HepG2 pre-treated 25 μM, acceptor human LDL, listed as Atorvastatin

`CC(C)c1c(C(=O)Nc2ccccc2)c(-c2ccccc2)c(-c2ccc(F)cc2)n1CC[C@@H](O)C[C@@H](O)CC(=O)O` [atorvastatin] was tested, and the “effect on Specific Chol Efflux” value (J774 macrophages; [1]) was “did not modify”, the “effect on Specific Chol Efflux” value (J774 macrophages; [2]) was “did not modulate” and the “effect on Specific Chol Efflux” value (J774 macrophages; HepG2 pre-treated overnight 25 μM, acceptor human serum) was “did not change; also recorded: did not modulate”. The “effect on Specific Chol Efflux” value (J774 macrophages; HepG2 pre-treated overnight 25 μM, acceptor human serum, listed as Atorvastatin) was “did not affect”, the “combined effect on Specific Chol Uptake” value (HepG2 hepatocytes; acceptor apoB-depleted serum) was “not” and the “combined effect on Specific Chol Uptake” value (HepG2 hepatocytes; acceptor complete human serum) was “additive effect”. The “effect on Specific Chol Uptake” value (HepG2 hepatocytes; [1]) was “increased significantly”, the “effect on Specific Chol Uptake” value (HepG2 hepatocytes; [2]) was “increased” and the “effect on Specific Chol Uptake” value (HepG2 hepatocytes; HepG2 pre-treated overnight 25 μM, acceptor apoB-depleted serum) was “reduced effect and not”. For the same compound, the “effect on Specific Chol Uptake” value (HepG2 hepatocytes; HepG2 pre-treated overnight 25 μM, acceptor complete human serum) was “significantly increased”, the “effect on Specific Chol Uptake” value (HepG2 hepatocytes; HepG2 pre-treated overnight 25 μM, acceptor complete human serum, listed as Atorvastatin) was “increased” and the “effect on Chol Uptake” value (HepG2 hepatocytes; hepatocytes pre-treated 10 μM, acceptor apoB-depleted serum, compared to complete serum) was “reduced effect”. For the same compound, the “effect on hepatic Chol Uptake” value (HepG2 hepatocytes; hepatocytes pre-treated 10 μM, acceptor complete human serum) was “increased”.
